Data: the supplement of paper PMC4604168 (melanoma cell lines)
The other results are listed elsewhere or left out. Repeats are few or missing, and single values can be far off.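 Imaging used 1,536-well plates; nuclei positive for cleaved PARP by antibody were divided by total DNA-stained nuclei to yield the apoptosis fraction. Doses for screening kept most cells viable, and cell lines differ markedly in resting and induced cleaved-PARP levels.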

test system: WM115; test: cleaved PARP positive nuclei fraction relative to DMSO control; melanoma cells; higher = more apoptosis; details: library dose: low library concentration; 72 h

| Structure (SMILES) | cleaved PARP positive nuclei fraction [%] |
| --- | --- |
| CC(C)(C)c1cnc(CSc2cnc(NC(=O)C3CCNCC3)s2)o1 + OCCn1cc(-c2cnc3nnn(Cc4ccc5ncccc5c4)c3n2)cn1 [PF04217903] (first compound 0.01 µM, partner dose 1 µM) | 70.2 |
| Cc1cc(N2CCOCC2)cc2[nH]c(-c3c(NC[C@@H](O)c4cccc(Cl)c4)cc[nH]c3=O)nc12 + O=C(O)C(=O)Nc1sc2c(c1C(=O)O)CCNC2 [TCS401] (first compound 0.2 µM, partner dose 1.66667 µM) | 81.5 |
| COc1cc(Nc2ncc(F)c(Nc3ccc4c(n3)NC(=O)C(C)(C)O4)n2)cc(OC)c1OC [Tamatinib] + Cn1cc(/C=C2\C(=O)Nc3cccnc32)c2ccccc21 [GW441756] (first compound 0.4 µM, partner dose 0.4 µM) | 154 |
| NC(=O)Nc1cc(-c2cccc(F)c2)sc1C(=O)N[C@H]1CCCNC1 + NCC(=O)Nc1ccc(-n2nc(C(F)(F)F)cc2-c2ccc3c(ccc4ccccc43)c2)cc1 [OSU03012] (first compound 0.02 µM, partner dose 1 µM) | 95.7 |
| Nc1cccc2c1CN(C1CCC(=O)NC1=O)C2=O (stereo not drawn) [lenalidomide] + O=C(Nc1ccccc1)c1cc([N+](=O)[O-])ccc1Cl [GW9662] (first compound 1 µM, partner dose 2 µM) | 177 |
| Cn1cncc1[C@@](N)(c1ccc(Cl)cc1)c1ccc2c(c1)c(-c1cccc(Cl)c1)cc(=O)n2C [tipifarnib] + COc1cc(N2CCC(N3CCN(C)CC3)CC2)ccc1Nc1ncc(Cl)c(Nc2ccccc2S(=O)(=O)C(C)C)n1 [NVP-TAE684] (first compound 0.01 µM, partner dose 0.08 µM) | 502 |
| Nc1cccc2c1CN(C1CCC(=O)NC1=O)C2=O (stereo not drawn) [lenalidomide] + CN(C)S(=O)(=O)c1ccc2c(c1)/C(=C/c1cc3c([nH]1)CCCC3)C(=O)N2 [SU6656] (first compound 1 µM, partner dose 0.4 µM) | 136 |
| C[C@]1(c2nc3c(C(N)=O)cccc3[nH]2)CCCN1 [Veliparib] + Cc1ccc(NC(=O)c2cccc(N(C)C)c2)cc1NC(=O)c1ccc(O)cc1 [ZM336372] (first compound 1.4 µM, partner dose 2 µM) | 246 |
| C=CCn1c(=O)c2cnc(Nc3ccc(N4CCN(C)CC4)cc3)nc2n1-c1cccc(C(C)(C)O)n1 + NC(=O)Nc1cc(-c2cccc(F)c2)sc1C(=O)N[C@H]1CCCNC1 [AZD7762] (first compound 0.02 µM, partner dose 0.02 µM) | 324 |
| COCC[n+]1c2c(n(Cc3cnccn3)c1C)C(=O)c1ccccc1C2=O + COc1cc(N2CCC(N3CCN(C)CC3)CC2)ccc1Nc1ncc(Cl)c(Nc2ccccc2S(=O)(=O)C(C)C)n1 [NVP-TAE684] (first compound 0.0004 µM, partner dose 0.08 µM) | 121 |
| Cn1nnc2c(C(N)=O)ncn2c1=O [temozolomide] + COc1cc2ncnc(Nc3ccc(Oc4ccccc4)cc3)c2cc1OC [SrcI1] (first compound 2 µM, partner dose 2 µM) | 70.6 |
| CC(C)(C)c1cnc(CSc2cnc(NC(=O)C3CCNCC3)s2)o1 + COC(=O)c1sccc1S(=O)(=O)Nc1ccc(Nc2ccccc2)cc1OC [GSK0660] (first compound 0.01 µM, partner dose 1 µM) | 127 |
| CC(=O)c1c(C)c2cnc(Nc3ccc(N4CCNCC4)cn3)nc2n(C2CCCC2)c1=O [palbociclib] + Clc1ccc(Nc2nnc(Cc3ccncc3)c3ccccc23)cc1 [vatalanib] (first compound 0.04 µM, partner dose 2 µM) | 83.4 |
| Cc1ccc(NC(=O)c2cccc(N(C)C)c2)cc1NC(=O)c1ccc(O)cc1 + Cc1cc(N2CCOCC2)cc2[nH]c(-c3c(NC[C@@H](O)c4cccc(Cl)c4)cc[nH]c3=O)nc12 [BMS536924] (first compound 2 µM, partner dose 0.2 µM) | 123 |
| O=C(CCCCCCC(=O)Nc1ccccc1)NO [vorinostat] + CC1(C)NC(=O)N(c2ccc([N+](=O)[O-])c(C(F)(F)F)c2)C1=O [nilutamide] (first compound 0.08 µM, partner dose 1 µM) | 82.5 |
| CC(=O)c1c(C)c2cnc(Nc3ccc(N4CCNCC4)cn3)nc2n(C2CCCC2)c1=O [palbociclib] + CCc1ccc(CCOc2ccc(CC3SC(=O)NC3=O)cc2)nc1 [pioglitazone] (first compound 0.04 µM, partner dose 2 µM) | 151 |
| Clc1ccc(Nc2nnc(Cc3ccncc3)c3ccccc23)cc1 [vatalanib] + Cn1nnc2c(C(N)=O)ncn2c1=O [temozolomide] (first compound 2 µM, partner dose 2 µM) | 84.5 |

| Structure (SMILES) | cleaved PARP positive nuclei fraction [%] |
| --- | --- |
| C#Cc1cccc(Nc2ncnc3cc(OCCOC)c(OCCOC)cc23)c1 [erlotinib] + OCCn1cc(-c2cnc3nnn(Cc4ccc5ncccc5c4)c3n2)cn1 [PF04217903] (first compound 0.8 µM, partner dose 1 µM) | 95.4 |
| Cn1cncc1[C@@](N)(c1ccc(Cl)cc1)c1ccc2c(c1)c(-c1cccc(Cl)c1)cc(=O)n2C [tipifarnib] + Oc1cc(-c2nc(-c3ccccc3)[nH]c2-c2ccncc2)ccc1Cl [L779450] (first compound 0.01 µM, partner dose 0.2 µM) | 392 |
| Cn1c(Nc2ccc(C(F)(F)F)cc2)nc2cc(Oc3ccnc(-c4ncc(C(F)(F)F)[nH]4)c3)ccc21 + N#Cc1c(O)c2c(-c3ccc(-c4ccccc4O)cc3)csc2[nH]c1=O [A769662] (first compound 0.08 µM, partner dose 2 µM) | 373 |
| O=C(CCCCCCC(=O)Nc1ccccc1)NO [vorinostat] + O=S(=O)(c1ccccc1)N(CC(F)(F)F)c1ccc(C(O)(C(F)(F)F)C(F)(F)F)cc1 [T0901317] (first compound 0.08 µM, partner dose 1.4 µM) | 50.4 |
| C[C@]1(c2nc3c(C(N)=O)cccc3[nH]2)CCCN1 [Veliparib] + COc1ccc(-c2ccc3c(N4CCOCC4)nc(N4C[C@@H](C)O[C@@H](C)C4)nc3n2)cc1CO [KU0063794] (first compound 1.4 µM, partner dose 0.02 µM) | 172 |
| Cn1c(Nc2ccc(C(F)(F)F)cc2)nc2cc(Oc3ccnc(-c4ncc(C(F)(F)F)[nH]4)c3)ccc21 + O=C1NC(=O)/C(=C/c2ccc(-c3ccc(F)cc3O)o2)S1 [AS252424] (first compound 0.08 µM, partner dose 1 µM) | 430 |
| Cc1cc(N2CCOCC2)cc2[nH]c(-c3c(NC[C@@H](O)c4cccc(Cl)c4)cc[nH]c3=O)nc12 + CCN(CC)CCCCNc1ncc2cc(-c3cc(OC)cc(OC)c3)c(NC(=O)NC(C)(C)C)nc2n1 [PD173074] (first compound 0.2 µM, partner dose 0.1 µM) | 91.3 |
| Cc1nc(Nc2ncc(C(=O)Nc3c(C)cccc3Cl)s2)cc(N2CCN(CCO)CC2)n1 [dasatanib] + O=C(O)C(=O)Nc1sc2c(c1C(=O)O)CCNC2 [TCS401] (first compound 0.004 µM, partner dose 1.66667 µM) | 202 |
| Cc1ccc(NC(=O)c2cccc(N(C)C)c2)cc1NC(=O)c1ccc(O)cc1 + N#Cc1c(O)c2c(-c3ccc(-c4ccccc4O)cc3)csc2[nH]c1=O [A769662] (first compound 2 µM, partner dose 2 µM) | 89 |
| C#Cc1cccc(Nc2ncnc3cc(OCCOC)c(OCCOC)cc23)c1 [erlotinib] + N#Cc1c(O)c2c(-c3ccc(-c4ccccc4O)cc3)csc2[nH]c1=O [A769662] (first compound 0.8 µM, partner dose 2 µM) | 75.8 |
| Nc1cccc2c1CN(C1CCC(=O)NC1=O)C2=O (stereo not drawn) [lenalidomide] + NC(=O)Nc1cc(-c2cccc(F)c2)sc1C(=O)N[C@H]1CCCNC1 [AZD7762] (first compound 1 µM, partner dose 0.02 µM) | 76.6 |
| Nc1cccc2c1CN(C1CCC(=O)NC1=O)C2=O (stereo not drawn) [lenalidomide] + COc1cc(N2CCC(N3CCN(C)CC3)CC2)ccc1Nc1ncc(Cl)c(Nc2ccccc2S(=O)(=O)C(C)C)n1 [NVP-TAE684] (first compound 1 µM, partner dose 0.08 µM) | 81.1 |
| NC(=O)Nc1cc(-c2cccc(F)c2)sc1C(=O)N[C@H]1CCCNC1 + O=c1cc(-c2cccc3c2Sc2ccccc2S3)oc(N2CCOCC2)c1 [KU55933] (first compound 0.02 µM, partner dose 1 µM) | 124 |
| Cc1cc(N2CCOCC2)cc2[nH]c(-c3c(NC[C@@H](O)c4cccc(Cl)c4)cc[nH]c3=O)nc12 + Oc1nc(-c2ccc(C(F)(F)F)cc2)nc2c1CSCC2 [XAV939] (first compound 0.2 µM, partner dose 2 µM) | 62.9 |
| Nc1cccc2c1CN(C1CCC(=O)NC1=O)C2=O (stereo not drawn) [lenalidomide] + C=CCn1c(=O)c2cnc(Nc3ccc(N4CCN(C)CC4)cc3)nc2n1-c1cccc(C(C)(C)O)n1 [MK1775] (first compound 1 µM, partner dose 0.02 µM) | 120 |
| OCc1c[nH]c2ccccc12 [Indole-3-carbinol] + COc1cc(N2CCC(N3CCN(C)CC3)CC2)ccc1Nc1ncc(Cl)c(Nc2ccccc2S(=O)(=O)C(C)C)n1 [NVP-TAE684] (first compound 0.8 µM, partner dose 0.08 µM) | 200 |

A run of entries of the results above:

| Structure (SMILES) | cleaved PARP positive nuclei fraction [%] |
| --- | --- |
| Cn1c(Nc2ccc(C(F)(F)F)cc2)nc2cc(Oc3ccnc(-c4ncc(C(F)(F)F)[nH]4)c3)ccc21 + N#Cc1c(O)c2c(-c3ccc(-c4ccccc4O)cc3)csc2[nH]c1=O [A769662] (first compound 0.08 µM, partner dose 2 µM) | 373 |
| O=C(CCCCCCC(=O)Nc1ccccc1)NO [vorinostat] + O=S(=O)(c1ccccc1)N(CC(F)(F)F)c1ccc(C(O)(C(F)(F)F)C(F)(F)F)cc1 [T0901317] (first compound 0.08 µM, partner dose 1.4 µM) | 50.4 |
| C[C@]1(c2nc3c(C(N)=O)cccc3[nH]2)CCCN1 [Veliparib] + COc1ccc(-c2ccc3c(N4CCOCC4)nc(N4C[C@@H](C)O[C@@H](C)C4)nc3n2)cc1CO [KU0063794] (first compound 1.4 µM, partner dose 0.02 µM) | 172 |
| Cn1c(Nc2ccc(C(F)(F)F)cc2)nc2cc(Oc3ccnc(-c4ncc(C(F)(F)F)[nH]4)c3)ccc21 + O=C1NC(=O)/C(=C/c2ccc(-c3ccc(F)cc3O)o2)S1 [AS252424] (first compound 0.08 µM, partner dose 1 µM) | 430 |
| Cc1cc(N2CCOCC2)cc2[nH]c(-c3c(NC[C@@H](O)c4cccc(Cl)c4)cc[nH]c3=O)nc12 + CCN(CC)CCCCNc1ncc2cc(-c3cc(OC)cc(OC)c3)c(NC(=O)NC(C)(C)C)nc2n1 [PD173074] (first compound 0.2 µM, partner dose 0.1 µM) | 91.3 |
| Cc1nc(Nc2ncc(C(=O)Nc3c(C)cccc3Cl)s2)cc(N2CCN(CCO)CC2)n1 [dasatanib] + O=C(O)C(=O)Nc1sc2c(c1C(=O)O)CCNC2 [TCS401] (first compound 0.004 µM, partner dose 1.66667 µM) | 202 |
| Cc1ccc(NC(=O)c2cccc(N(C)C)c2)cc1NC(=O)c1ccc(O)cc1 + N#Cc1c(O)c2c(-c3ccc(-c4ccccc4O)cc3)csc2[nH]c1=O [A769662] (first compound 2 µM, partner dose 2 µM) | 89 |
| C#Cc1cccc(Nc2ncnc3cc(OCCOC)c(OCCOC)cc23)c1 [erlotinib] + N#Cc1c(O)c2c(-c3ccc(-c4ccccc4O)cc3)csc2[nH]c1=O [A769662] (first compound 0.8 µM, partner dose 2 µM) | 75.8 |
| Nc1cccc2c1CN(C1CCC(=O)NC1=O)C2=O (stereo not drawn) [lenalidomide] + NC(=O)Nc1cc(-c2cccc(F)c2)sc1C(=O)N[C@H]1CCCNC1 [AZD7762] (first compound 1 µM, partner dose 0.02 µM) | 76.6 |
